Experimental data taken from doi:10.1101/2023.04.09.536178.
These are yes or no findings as the source states them, for the method shown. Binding seen in cells or lysates may run through a third protein. Some binding calls cover weakened binding; strength is not graded here. Tags and fused reporters may be left off the sequences shown.

By UniProt entry, the sequences of proteins in these tests, tags left out. Where a name states a change or a piece, a line headed by the entry shows the natural chain unless it says otherwise.
UniProt P15311: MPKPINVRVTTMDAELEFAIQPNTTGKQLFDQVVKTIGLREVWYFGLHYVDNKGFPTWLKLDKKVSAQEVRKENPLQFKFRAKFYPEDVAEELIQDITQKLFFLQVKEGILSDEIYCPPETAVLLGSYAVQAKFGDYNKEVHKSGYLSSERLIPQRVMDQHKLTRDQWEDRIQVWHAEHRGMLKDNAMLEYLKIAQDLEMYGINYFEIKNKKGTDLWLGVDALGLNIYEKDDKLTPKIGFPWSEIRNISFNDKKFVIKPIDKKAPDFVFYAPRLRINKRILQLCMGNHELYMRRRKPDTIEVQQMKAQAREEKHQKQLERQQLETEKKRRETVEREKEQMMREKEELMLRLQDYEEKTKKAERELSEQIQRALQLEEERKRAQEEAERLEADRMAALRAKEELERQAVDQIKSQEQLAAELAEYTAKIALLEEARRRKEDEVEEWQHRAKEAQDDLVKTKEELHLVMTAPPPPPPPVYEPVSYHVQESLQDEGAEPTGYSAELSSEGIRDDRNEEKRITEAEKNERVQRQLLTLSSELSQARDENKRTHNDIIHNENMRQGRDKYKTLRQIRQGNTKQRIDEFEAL

Target: T1, Myc-tagged Atg7 (Atg7-Myc) (UniProt Q9D906)
T1 sequence: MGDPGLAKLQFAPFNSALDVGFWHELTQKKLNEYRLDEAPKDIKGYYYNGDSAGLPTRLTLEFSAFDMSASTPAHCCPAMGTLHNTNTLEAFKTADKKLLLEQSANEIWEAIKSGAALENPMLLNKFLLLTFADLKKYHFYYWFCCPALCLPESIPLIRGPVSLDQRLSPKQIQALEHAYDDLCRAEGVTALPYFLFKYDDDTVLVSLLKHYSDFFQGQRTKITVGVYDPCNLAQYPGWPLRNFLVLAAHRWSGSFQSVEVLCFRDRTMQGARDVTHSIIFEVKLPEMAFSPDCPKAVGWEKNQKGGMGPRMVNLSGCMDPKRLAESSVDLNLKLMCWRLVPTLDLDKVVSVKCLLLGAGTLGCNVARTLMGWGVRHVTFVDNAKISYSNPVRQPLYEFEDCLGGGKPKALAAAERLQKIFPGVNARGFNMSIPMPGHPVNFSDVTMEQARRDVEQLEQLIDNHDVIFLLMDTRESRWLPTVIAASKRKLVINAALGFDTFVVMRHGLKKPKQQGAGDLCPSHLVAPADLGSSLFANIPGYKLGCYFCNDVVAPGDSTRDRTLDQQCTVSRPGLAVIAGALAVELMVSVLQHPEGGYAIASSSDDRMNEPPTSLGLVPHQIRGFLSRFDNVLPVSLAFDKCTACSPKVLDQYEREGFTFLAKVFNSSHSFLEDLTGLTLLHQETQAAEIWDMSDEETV
Test: co-IP; HEK293T co-transfected with Ezrin-HA and Atg7-Myc cDNA, lysed 36 h later (25 mM HEPES, 150 mM KCl, 1.5 mM MgCl2, 0.5% NP40, 10% glycerol, protease and phosphatase inhibitors); anti-c-Myc magnetic beads 6 h at 4 C; detection with anti-HA and anti-Myc on SimpleWestern Jess

| binding | Substance |
| --- | --- |
| binds | HA-tagged WT Ezrin (Ezrin-HA) (from UniProt P15311 1-586) |
| binds | HA-tagged phospho-dead Ezrin T567A (from UniProt P15311 1-586) |
